This note sets out measurements from PMC11149935, “SAFB regulates hippocampal stem cell fate by targeting Drosha to destabilize Nfib mRNA” (eLife, 2024).

By UniProt entry, the sequences of proteins in these tests, tags left out.
UniProt D3YXK2: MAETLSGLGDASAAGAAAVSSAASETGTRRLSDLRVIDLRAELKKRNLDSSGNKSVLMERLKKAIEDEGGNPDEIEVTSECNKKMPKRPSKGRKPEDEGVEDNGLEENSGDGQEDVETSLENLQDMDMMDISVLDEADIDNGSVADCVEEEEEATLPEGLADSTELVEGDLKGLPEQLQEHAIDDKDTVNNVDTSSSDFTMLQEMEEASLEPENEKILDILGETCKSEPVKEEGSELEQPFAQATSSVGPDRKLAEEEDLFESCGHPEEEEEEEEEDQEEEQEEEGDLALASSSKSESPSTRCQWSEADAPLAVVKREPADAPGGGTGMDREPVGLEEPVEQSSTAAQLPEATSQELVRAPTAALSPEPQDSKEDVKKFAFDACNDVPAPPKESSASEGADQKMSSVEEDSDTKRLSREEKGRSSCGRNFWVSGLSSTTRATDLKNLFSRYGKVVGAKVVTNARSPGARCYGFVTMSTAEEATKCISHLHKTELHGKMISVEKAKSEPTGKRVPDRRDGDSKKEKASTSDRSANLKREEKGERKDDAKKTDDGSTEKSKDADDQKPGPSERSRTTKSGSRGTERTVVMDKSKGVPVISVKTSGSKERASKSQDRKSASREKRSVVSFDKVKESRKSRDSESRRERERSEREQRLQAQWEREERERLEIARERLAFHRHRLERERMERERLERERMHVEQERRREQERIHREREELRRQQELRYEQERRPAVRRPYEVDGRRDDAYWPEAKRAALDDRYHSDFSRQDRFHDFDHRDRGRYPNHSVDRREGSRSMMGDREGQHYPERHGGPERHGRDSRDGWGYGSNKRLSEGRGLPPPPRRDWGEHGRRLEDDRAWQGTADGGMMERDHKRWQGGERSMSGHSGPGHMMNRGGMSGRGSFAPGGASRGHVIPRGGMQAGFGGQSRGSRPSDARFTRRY
UniProt Q921F2: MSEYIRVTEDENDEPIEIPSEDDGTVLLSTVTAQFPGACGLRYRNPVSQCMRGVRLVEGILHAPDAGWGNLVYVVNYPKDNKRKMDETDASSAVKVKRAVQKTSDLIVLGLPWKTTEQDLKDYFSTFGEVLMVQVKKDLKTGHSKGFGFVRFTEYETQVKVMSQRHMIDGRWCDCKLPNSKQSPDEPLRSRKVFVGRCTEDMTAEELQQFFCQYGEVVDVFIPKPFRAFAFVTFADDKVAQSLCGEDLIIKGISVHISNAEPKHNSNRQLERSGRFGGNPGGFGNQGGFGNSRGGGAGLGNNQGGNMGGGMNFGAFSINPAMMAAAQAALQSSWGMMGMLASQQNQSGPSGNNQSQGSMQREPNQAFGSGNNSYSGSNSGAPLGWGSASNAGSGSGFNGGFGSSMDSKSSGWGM
UniProt O88569: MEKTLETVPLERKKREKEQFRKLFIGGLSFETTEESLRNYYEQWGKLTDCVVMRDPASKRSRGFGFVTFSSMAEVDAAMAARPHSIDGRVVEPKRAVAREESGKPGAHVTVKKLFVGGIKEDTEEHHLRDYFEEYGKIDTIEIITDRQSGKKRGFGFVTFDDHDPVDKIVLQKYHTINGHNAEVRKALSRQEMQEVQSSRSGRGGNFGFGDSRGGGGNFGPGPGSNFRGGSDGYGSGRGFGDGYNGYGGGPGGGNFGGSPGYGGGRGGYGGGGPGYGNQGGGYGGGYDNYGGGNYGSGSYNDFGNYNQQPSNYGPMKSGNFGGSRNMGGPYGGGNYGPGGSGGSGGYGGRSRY
UniProt Q80YR5: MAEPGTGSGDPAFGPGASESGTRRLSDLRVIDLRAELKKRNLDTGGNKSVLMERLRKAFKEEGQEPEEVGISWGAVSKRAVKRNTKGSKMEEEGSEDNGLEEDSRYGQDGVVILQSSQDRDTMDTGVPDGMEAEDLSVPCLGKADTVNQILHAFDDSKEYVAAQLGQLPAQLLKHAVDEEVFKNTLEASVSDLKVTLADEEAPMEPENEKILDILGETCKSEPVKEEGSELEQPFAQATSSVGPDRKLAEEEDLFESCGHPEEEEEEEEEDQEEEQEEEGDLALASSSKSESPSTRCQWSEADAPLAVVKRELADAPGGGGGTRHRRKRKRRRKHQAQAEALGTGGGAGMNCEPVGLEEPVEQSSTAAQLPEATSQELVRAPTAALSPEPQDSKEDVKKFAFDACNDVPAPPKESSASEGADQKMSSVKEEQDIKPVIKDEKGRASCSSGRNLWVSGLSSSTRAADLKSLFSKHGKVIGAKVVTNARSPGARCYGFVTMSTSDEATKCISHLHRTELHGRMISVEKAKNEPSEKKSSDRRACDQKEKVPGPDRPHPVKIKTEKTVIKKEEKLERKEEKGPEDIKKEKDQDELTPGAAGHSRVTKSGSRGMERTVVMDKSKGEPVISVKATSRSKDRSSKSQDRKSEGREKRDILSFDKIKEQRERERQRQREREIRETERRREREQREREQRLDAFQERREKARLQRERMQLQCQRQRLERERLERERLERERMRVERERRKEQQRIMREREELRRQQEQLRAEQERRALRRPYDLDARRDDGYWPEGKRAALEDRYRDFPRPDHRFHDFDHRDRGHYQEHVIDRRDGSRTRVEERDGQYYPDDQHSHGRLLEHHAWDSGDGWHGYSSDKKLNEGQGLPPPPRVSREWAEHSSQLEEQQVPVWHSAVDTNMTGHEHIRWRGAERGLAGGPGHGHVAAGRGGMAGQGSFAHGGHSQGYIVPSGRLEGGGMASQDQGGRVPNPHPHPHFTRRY
UniProt Q60749: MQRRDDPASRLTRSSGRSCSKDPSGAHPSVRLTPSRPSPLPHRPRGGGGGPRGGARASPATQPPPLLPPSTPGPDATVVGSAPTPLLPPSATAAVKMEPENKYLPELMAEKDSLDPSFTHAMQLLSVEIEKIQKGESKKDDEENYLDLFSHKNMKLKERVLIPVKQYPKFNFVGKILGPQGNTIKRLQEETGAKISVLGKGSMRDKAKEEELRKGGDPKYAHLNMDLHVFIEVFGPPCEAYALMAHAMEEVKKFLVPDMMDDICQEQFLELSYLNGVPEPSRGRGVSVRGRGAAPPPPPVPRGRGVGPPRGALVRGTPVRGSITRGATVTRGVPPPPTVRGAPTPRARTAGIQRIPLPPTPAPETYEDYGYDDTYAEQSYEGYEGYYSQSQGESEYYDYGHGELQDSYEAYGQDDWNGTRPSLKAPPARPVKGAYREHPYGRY
UniProt Q8VEK3: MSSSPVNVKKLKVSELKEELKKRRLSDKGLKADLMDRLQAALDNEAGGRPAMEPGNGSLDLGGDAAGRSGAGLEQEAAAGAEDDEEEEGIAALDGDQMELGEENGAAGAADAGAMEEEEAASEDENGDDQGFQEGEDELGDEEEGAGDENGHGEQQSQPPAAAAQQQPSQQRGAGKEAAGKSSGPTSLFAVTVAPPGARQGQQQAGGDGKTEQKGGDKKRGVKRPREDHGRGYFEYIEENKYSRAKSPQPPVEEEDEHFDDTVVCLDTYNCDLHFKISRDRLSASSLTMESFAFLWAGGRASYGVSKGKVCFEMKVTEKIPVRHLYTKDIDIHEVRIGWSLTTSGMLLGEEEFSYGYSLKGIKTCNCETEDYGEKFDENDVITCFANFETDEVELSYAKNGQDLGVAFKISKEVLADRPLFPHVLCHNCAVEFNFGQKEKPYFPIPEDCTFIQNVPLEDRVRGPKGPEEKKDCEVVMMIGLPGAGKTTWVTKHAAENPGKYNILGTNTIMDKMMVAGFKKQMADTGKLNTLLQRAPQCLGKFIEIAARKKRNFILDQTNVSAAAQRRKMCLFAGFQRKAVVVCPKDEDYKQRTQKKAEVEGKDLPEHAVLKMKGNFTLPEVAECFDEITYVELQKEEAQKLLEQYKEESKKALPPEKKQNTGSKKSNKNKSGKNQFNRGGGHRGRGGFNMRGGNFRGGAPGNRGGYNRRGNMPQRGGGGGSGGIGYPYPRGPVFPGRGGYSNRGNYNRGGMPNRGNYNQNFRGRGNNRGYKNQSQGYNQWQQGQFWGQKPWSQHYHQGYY
UniProt O70133: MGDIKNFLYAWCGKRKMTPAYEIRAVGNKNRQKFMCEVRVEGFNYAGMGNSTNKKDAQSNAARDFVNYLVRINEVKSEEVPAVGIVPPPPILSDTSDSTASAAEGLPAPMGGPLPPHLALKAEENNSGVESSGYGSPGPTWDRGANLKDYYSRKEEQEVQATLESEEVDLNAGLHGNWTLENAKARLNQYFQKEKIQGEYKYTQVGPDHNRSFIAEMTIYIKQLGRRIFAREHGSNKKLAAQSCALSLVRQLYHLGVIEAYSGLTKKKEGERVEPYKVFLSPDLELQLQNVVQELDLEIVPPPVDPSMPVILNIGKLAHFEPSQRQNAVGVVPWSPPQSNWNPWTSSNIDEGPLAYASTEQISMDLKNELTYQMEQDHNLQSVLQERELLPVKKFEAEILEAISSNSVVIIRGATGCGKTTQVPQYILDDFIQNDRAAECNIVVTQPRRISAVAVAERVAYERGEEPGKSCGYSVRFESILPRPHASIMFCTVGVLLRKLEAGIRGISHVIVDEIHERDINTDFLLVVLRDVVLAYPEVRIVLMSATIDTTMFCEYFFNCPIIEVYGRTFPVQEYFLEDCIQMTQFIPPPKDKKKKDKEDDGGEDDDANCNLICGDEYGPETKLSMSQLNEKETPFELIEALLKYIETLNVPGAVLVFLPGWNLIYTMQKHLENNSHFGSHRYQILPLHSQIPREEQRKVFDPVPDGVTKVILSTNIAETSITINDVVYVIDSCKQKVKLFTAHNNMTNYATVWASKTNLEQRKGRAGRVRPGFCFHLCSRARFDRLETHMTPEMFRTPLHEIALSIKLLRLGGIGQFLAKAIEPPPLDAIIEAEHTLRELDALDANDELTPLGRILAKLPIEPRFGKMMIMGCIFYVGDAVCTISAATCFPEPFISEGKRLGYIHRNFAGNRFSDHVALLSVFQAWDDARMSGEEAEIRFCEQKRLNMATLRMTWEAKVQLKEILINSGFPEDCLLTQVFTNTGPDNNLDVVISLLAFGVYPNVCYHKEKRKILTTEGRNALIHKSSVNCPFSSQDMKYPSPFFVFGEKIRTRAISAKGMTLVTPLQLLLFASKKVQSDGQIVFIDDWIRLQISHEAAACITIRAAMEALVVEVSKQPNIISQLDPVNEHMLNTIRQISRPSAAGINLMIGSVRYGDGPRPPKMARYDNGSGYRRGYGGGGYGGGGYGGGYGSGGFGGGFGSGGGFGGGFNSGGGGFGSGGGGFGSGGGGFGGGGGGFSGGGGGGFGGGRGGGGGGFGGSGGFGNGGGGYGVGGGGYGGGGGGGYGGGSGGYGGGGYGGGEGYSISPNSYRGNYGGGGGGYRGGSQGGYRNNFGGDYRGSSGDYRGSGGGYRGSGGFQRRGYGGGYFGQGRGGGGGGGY
UniProt Q9WVA3: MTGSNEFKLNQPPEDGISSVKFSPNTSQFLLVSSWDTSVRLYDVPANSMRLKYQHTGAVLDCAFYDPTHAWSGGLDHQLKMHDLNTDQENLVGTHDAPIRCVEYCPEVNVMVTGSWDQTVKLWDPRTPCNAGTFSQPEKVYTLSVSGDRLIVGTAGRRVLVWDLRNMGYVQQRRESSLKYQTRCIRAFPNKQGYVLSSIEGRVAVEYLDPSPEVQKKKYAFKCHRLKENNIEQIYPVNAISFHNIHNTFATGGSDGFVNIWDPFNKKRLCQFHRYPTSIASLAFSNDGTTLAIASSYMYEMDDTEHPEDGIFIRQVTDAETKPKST

These are yes or no findings as the source states them, for the method shown. Binding seen in cells or lysates may run through a third protein. Here binding means that the protein was enriched with, or labelled near, the bait; the list need not be complete. A no says only that the protein was not detected with the bait.

Sequences and labels used below:
T1: Drosha (mouse (endogenous in DG NSCs)) (UniProt Q5HZJ0)
T1 sequence: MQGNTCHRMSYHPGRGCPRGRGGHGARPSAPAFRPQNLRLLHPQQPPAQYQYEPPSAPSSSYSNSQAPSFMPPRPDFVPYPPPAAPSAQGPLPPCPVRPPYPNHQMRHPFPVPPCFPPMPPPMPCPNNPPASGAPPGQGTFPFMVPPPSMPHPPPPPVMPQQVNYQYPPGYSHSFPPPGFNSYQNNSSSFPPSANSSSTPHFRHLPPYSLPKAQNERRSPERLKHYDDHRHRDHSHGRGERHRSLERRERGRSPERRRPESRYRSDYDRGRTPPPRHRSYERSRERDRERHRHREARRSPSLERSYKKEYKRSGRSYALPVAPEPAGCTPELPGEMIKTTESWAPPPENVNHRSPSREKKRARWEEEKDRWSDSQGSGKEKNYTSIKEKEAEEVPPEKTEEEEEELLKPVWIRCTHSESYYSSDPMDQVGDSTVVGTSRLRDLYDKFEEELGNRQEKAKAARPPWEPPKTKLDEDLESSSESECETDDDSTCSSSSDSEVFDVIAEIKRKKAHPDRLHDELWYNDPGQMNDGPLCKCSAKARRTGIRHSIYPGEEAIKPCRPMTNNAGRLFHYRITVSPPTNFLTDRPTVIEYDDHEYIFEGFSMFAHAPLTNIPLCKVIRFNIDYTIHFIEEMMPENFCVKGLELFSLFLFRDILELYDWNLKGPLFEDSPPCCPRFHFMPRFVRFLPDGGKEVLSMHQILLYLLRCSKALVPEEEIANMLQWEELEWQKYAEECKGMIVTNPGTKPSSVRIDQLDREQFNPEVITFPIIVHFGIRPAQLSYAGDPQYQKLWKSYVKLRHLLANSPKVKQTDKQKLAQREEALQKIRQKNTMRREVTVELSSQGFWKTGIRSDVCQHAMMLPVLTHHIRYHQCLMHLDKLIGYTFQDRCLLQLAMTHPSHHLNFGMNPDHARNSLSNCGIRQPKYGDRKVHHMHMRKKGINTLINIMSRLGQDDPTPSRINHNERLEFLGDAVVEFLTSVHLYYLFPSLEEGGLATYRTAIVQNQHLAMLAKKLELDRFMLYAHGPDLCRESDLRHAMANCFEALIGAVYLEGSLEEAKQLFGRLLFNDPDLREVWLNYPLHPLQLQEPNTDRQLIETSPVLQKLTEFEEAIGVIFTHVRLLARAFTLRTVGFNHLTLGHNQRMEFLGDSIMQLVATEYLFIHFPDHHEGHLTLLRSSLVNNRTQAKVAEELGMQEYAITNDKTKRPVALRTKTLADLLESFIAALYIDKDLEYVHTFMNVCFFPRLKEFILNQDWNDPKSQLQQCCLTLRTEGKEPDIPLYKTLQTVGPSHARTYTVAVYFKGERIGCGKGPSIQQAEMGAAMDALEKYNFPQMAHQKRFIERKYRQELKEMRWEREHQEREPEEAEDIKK

B1: Sart1 (protein, UniProt Q9Z315 1-806)
chain: MGSSKKHRGEKEAAGTTAAAGTGGTTEQPPRHREHKKHKHRSSGGGSSGGERRKRSRERGSERGSGRRGAEAEARSGAHGRERSQAEPSERRVKREKRDDGYEAAASSKASSGDASSLSIEETNKLRAKLGLKPLEVNAVKKEAGTKEEPVAADVINPMALRQREELREKLAAAKEKRLLNQKLGKIKTLGEDDPWLDDTAAWIERSRQLQKEKDLAEKRAKLLEEMDQEFGVSTLVEEEFEQRRQDLYSARDLQGLTVEHAIDSFREGETVVLTLKDKGVLQDGEDVLVNVNMVDKERADKNVELRKKKPDYLPYAEDESVDDLAQQKPRSILAKYDEELEGERPHSFRLEQGGMADGLRERELEEIRTKLRLQAQSLSSVGPRLASEYLSPEEMVTFKKTKRRVKKIRKKEKEVIMRADDLLPLGDQTQDGDFGSRLRGRGRRRVPEVEEEALEDEEKDPVAQPPPSDDTRVENMDISDEEDGGALPPGSPEGLEEDEAELELQKQLEKGRRLRQLQQLQQLRDSGEKVLEIVKKLESRQRGWEEEEDPERKGTIVFNATSEFCRTLGEIPTYGLAGNREEQEELMDFERDEERSANGGSESDGEENIGWSTVNLDEEKQHQDFSASSTTILDEEPIVNRGLAAALLLCQNKGLLETTVQKVARVKAPNKSLPSAVYCIEDKMAIDDKYSRREEYRGFTQDFKEKDGYKPDVKIEYVDETGRKLTPKEAFRQLSHRFHGKGSGKMKTERRMKKLDEEALLKKMSSSDTPLGTVALLQEKQKAQKTPYIVLSGSGKSMNANTITK
B2: Khsrp (protein, UniProt Q3U0V1 1-748)
chain: MSDYNTGGPPPGPPPPAGGGGGAAGAGGGPPPGPPGAGDRGGGGPGGGGPGGGGASGGPSQPPGGGGPGIRKDAFADAVQRARQIAAKIGGDAATTVNNNTPDFGFGGQKRQLEDGDQPDSKKLASQGDSIGSQLGPIHPPPRTSMTEEYRVPDGMVGLIIGRGGEQINKIQQDSGCKVQISPDSGGLPERSVSLTGAPESVQKAKMMLDDIVSRGRGGPPGQFHDNANGGQNGTVQEIMIPAGKAGLVIGKGGETIKQLQERAGVKMILIQDGSQNTNVDKPLRIIGDPYKVQQACEMVMDILRERDQGGFGDRNEYGSRVGGGIDVPVPRHSVGVVIGRSGEMIKKIQNDAGVRIQFKQDDGTGPEKIAHIMGPPDRCEHAARIINDLLQSLRSGPPGPPGAPGMPPGGRGRGRGQGNWGPPGGEMTFSIPTHKCGLVIGRGGENVKAINQQTGAFVEISRQLPPNGDPNFKLFVIRGSPQQIDHAKQLIEEKIEGPLCPVGPGPGGPGPAGPMGPFNPGPFNQGPPGAPPHAGGPPPHQYPPQGWGNTYPQWQPPAPHDPNKAAAAATDPNAAWAAYYSHYYQQPPGPVPGPAPAPAAPPAQGEPPQPPPTGQSDYTKAWEEYYKKIGQQPQQPGAPPQQDYTKAWEEYYKKQAQVATGGGPGAPPGSQPDYSAAWAEYYRQQAAYYGQTPGPGGPQPPPTQQGQQQASGNCHPPPPPFSFQPPATVHPALVGSAGNPFPCGVCP
B3: Sf1 (protein, UniProt Q64213 1-653)
chain: MATGANATPLDFPSKKRKRSRWNQDTMEQKTVIPGMPTVIPPGLTREQERAYIVQLQIEDLTRKLRTGDLGIPPNPEDRSPSPEPIYNSEGKRLNTREFRTRKKLEEERHTLITEMVALNPDFKPPADYKPPATRVSDKVMIPQDEYPEINFVGLLIGPRGNTLKNIEKECNAKIMIRGKGSVKEGKVGRKDGQMLPGEDEPLHALVTANTMENVKKAVEQIRNILKQGIETPEDQNDLRKMQLRELARLNGTLREDDNRILRPWQSSETRSITNTTVCTKCGGAGHIASDCKFQRPGDPQSAQDKARMDKEYLSLMAELGEAPVPASVGSTSGPATTPLASAPRPAAPASNPPPPSLMSTTQSRPPWMNSGPSENRPYHGMHGGGPGGPGGGPHSFPHPLPSLTGGHGGHPMQHNPNGPPPPWMQPPPPPMNQGPHPPGHHGPPPMDQYLGSTPVGSGVYRLHQGKGMMPPPPMGMMPPPPPPPSGQPPPPPSGPLPPWQQQQQQPPPPPPPSSSMASSTPLPWQQNTTTTTTSAGTGSIPPWQQQQAAAAASPGTPQMQGNPTMVPLPPGVQPPLPPGAPPPPPCSIECLLCLLSSPNSLCLSPNRAARIPPRGSDGPSHESEDFPRPLVTLPGRQPQQRPWWTGWFGKAA
B4: Prpf6 (protein, UniProt Q91YR7 1-941)
chain: MNKKKKPFLGMPAPLGYVPGLGRGATGFTTRSDIGPARDANDPVDDRHAPPGKRTVGDQMKKNQAADDDDEDLNDTNYDEFNGYAGSLFSSGPYEKDDEEADAIYAALDKRMDERRKERREQREKEEIEKYRMERPKIQQQFSDLKRKLAEVTEEEWLSIPEVGDARNKRQRNPRYEKLTPVPDSFFAKHLQTGENHTSVDPRQTQFGGLNTPYPGGLNTPYPGGMTPGLMTPGTGELDMRKIGQARNTLMDMRLSQVSDSVSGQTVVDPKGYLTDLNSMIPTHGGDINDIKKARLLLKSVRETNPHHPPAWIASARLEEVTGKLQVARNLIMKGTEMCPKSEDVWLEAARLQPGDTAKAVVAQAVRHLPQSVRIYIRAAELETDIRAKKRVLRKALEHVPNSVRLWKAAVELEEPEDARIMLSRAVECCPTSVELWLALARLETYENARKVLNKARENIPTDRHIWITAAKLEEANGNTQMVEKIIDRAITSLRANGVEINREQWIQDAEECDRAGSVATCQAVMRAVIGIGIEEEDRKHTWMEDADSCVAHNALECARAIYAYALQVFPSKKSVWLRAAYFEKNHGTRESLEALLQRAVAHCPKAEVLWLMGAKSKWLAGDVPAARSILALAFQANPNSEEIWLAAVKLESENNEYERARRLLAKARSSAPTARVFMKSVKLEWVLGNISAAQELCEEALRHYEDFPKLWMMKGQIEEQGELMEKAREAYNQGLKKCPHSTPLWLLLSRLEEKIGQLTRARAILEKSRLKNPKNPGLWLESVRLEYRAGLKNIANTLMAKALQECPNSGILWSEAVFLEARPQRKTKSVDALKKCEHDPHVLLAVAKLFWSERKITKAREWFHRTVKIDSDLGDAWAFFYKFELQHGTEEQQEEVRKRCENAEPRHGELWCAVSKDITNWQRKIGEILVLVAARIKNTF
B5: Pabpn1 (protein, UniProt Q8CCS6 1-302)
chain: MAAAAAAAAAAGAAGGRGSGPGRRRHLVPGAGGEAGEGDPGGAGDYGNGLESEELEPGELLPEPEPEEEPPRPRAPPGAPGPGPGSGAPGSQEEEEEPGLVEADPGDGAIEDPELEAIKARVREMEEEAEKLKELQNEVEKQMNMSPPPGNAGPVIMSLEEKMEADARSIYVGNVDYGATAEELEAHFHGCGSVNRVTILCDKFSGHPKGFAYIEFSDKESVRTSLALDESLFRGRQIKVIPKRTNRPGISTTDRGFPRSRYRARTTNYNSSRSRFYSGFNSRPRGRIYRGRARATSWYSPY

The target of the assay is T1, Drosha (mouse (endogenous in DG NSCs)). Put plainly: affinity purification with mass spectrometry; endogenous Drosha immunoprecipitated with anti-Drosha antibody from adult mouse DG NSC lysate, on-bead trypsin digestion, LC-MS/MS with label-free quantification over control IP; hits: p<0.05, log2 fold change >=3, FDR <=0.001, peptide count >=4.
In the case of “scaffold attachment factor B (SAFB) (from UniProt D3YXK2 1-937)”, the binding entry was “binds”.
Tdp43 (from UniProt Q921F2 1-414): the binding result was “binds”.
As for Hnrnpa2b1 (from UniProt O88569 1-353), the binding entry is on record as “binds”.
In the case of Ddx17 (from UniProt Q501J6 1-650) it was “binds”; in that of SAFB2 (from UniProt Q80YR5 1-991), “binds”; in that of Sam68 (from UniProt Q60749 1-443), “binds”.
As to Hnrnpu (from UniProt Q8VEK3 1-800), the binding result is “binds”.
Next, Dhx9 (from UniProt O70133 1-1380): “binds”; “SAFB-like transcription modulator (SLTM) (from UniProt Q8CH25 1-1031)”: “binds”.
Take PKC-α (from UniProt P20444 1-672): the binding result is “no binding”.
Next, Bub3 (from UniProt Q9WVA3 1-326): “binds”; B1: “binds”.
In the case of B2, the binding result is “binds”.
In the case of B3 it was “binds”; in that of B4, “binds”.
Next, B5: “binds”.
